Laboratory results as given in PubChem BioAssay AID2685 (National Center for Advancing Translational Sciences (NCATS), 2010).
The other results are listed elsewhere or left out. These are further read-outs of the screen, such as a control signal, another cell line or another target. No call is given for them. Most of these compounds were active or inconclusive in the main read-out, so they are no random draw. Words in brackets tell the shape of the fitted curve; partial curves, single points and poor fits give uncertain potencies.

Assay: qHTS Assay for Lipid Storage Modulators in Drosophila S3 Cells;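 as to cell number change: cells counted by Cell Tracker Red CMTPX staining in the red channel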
Details: BODIPY lipid droplet fluorescence, 18-24 h; for cell number change: measured here: cell count max response, cells fed with added oleic acid
In short: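 Drosophila S3 cells loaded with oleic acid (400 uM, as added) and compounds at several concentrations; lipid droplets imaged by 488-nm laser-scanning cytometry, 500–530 nm intensity and object ratio to cell channel. Percent activity normalized to 20 uM Triacsin C.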

[1] = measured here: lipid fluorescence (Fed channel) AC50, cells fed with added oleic acid
[2] = measured here: cell number channel AC50, cells fed with added oleic acid

SMILES | cell number change [%] | AC50 [1] | AC50 [2]
COc1ccccc1NC(=O)C(=N\O)/C(C)=N/O | -8.46 | 6.51 µM [falling, single point] | 
CSc1nc(-c2ccco2)nn1C(=O)c1ccc(Cl)cc1 | -9.86 | 29.1 µM [rising, single point] | 
CC[C@@H](C)C(N)c1cn([C@@H](CCC(=O)O)C(=O)N2CCNCC2)nn1 (some centres not stated) | 2.44 | 0.731 µM [rising, single point] | 
Cc1cc(NS(=O)(=O)c2ccc(NC(=O)COc3ccc(Cl)c(C)c3)cc2)no1 | 19.8 | 6.51 µM [rising, partial curve, poor fit] | 
COCc1c(C#N)c(NCCc2ccc(F)cc2)nc(C)c1[N+](=O)[O-] |  | 13 µM [falling, partial curve] | 6.51 µM [rising, single point]
Cc1ccc(O)c(NC(=O)c2cc([N+](=O)[O-])ccc2Cl)c1 | -38.5 | 29.1 µM [falling, single point] | 29.1 µM [falling, single point]
COc1ccc(NS(=O)(=O)c2cc(NC(=O)c3ccc(C)o3)ccc2N2CCCCC2)cc1 | -32.7 | 29.1 µM [falling, single point] | 29.1 µM [falling, single point]
O=C(Nc1ccccc1)Nc1ccc(NC(=O)c2ccccc2O)cc1 | 0.709 |  | 
O=C(Nc1ccc(O)c(C(=O)O)c1)c1cccc(NC(=O)c2ccco2)c1 | 30.4 | 29.1 µM [rising, partial curve, poor fit] | 32.6 µM [rising, partial curve, poor fit]
CC(C)CN1C(=O)C(=O)N(CC(=O)Nc2cccc(Cl)c2Cl)C1=O | 7.64 | 6.51 µM [rising, partial curve] | 
CC1Sc2ccc(C(=O)Nc3ncccc3O)cc2NC1=O (configuration not stated) | 16.1 |  | 
Cc1ccc(S(=O)(=O)N2CCCN(C(C)c3nc4ccccc4c(=O)[nH]3)CC2)cc1 (configuration not stated) | 0.352 |  | 
Cc1ccc(NC(=O)COC(=O)CC2SC(N3CCCC3)=NC2=O)cc1 (configuration not stated) | 0.937 | 9.2 µM [falling, partial curve, poor fit] | 
COc1cc(=O)[nH]c(SCC(=O)Nc2nc3c(s2)CCCC3)n1 | 18.7 | 0.58 µM [falling, single point] | 
Cc1nnc(SCC(=O)N(C)CC(=O)Nc2ccccc2Cl)s1 | -68 |  | 29.1 µM [falling, single point]
Cc1sc2nc(SCC(=O)OC(C)C)n(C)c(=O)c2c1C | -4.75 |  | 
COCCN(Cc1cn(C)nc1-c1ccc(Oc2ccccc2)cc1)C(C)C | 12.1 | 6.51 µM [rising, full curve] | 
CCOc1ccccc1C(=O)NCC(=O)NC(C)c1ccc(-n2ccnc2)cc1 (configuration not stated) |  | 2.91 µM [rising, partial curve, poor fit] | 3.66 µM [rising, single point]
CN(C1CCCCC1)S(=O)(=O)c1ccc2c(c1)CCC(=O)N2 | 20.9 |  | 

SMILES | cell number change [%] | AC50 [1] | AC50 [2]
N#Cc1ccc(NC(=O)CNc2cc(S(=O)(=O)N3CCOCC3)ccc2NCC2CCCO2)cc1 (configuration not stated) |  | 6.51 µM [rising, single point] | 6.51 µM [rising, single point]
O=C(Nc1nc(-c2cc(F)ccc2F)cs1)C1=NN(c2ccccc2)C(=O)CC1 |  | 0.58 µM [falling, single point] | 
COc1cccc(NC(=O)CNC(=O)c2ccc(C)o2)c1 | 1.57 | 0.116 µM [rising, full curve, poor fit] | 
COc1ccc(C(=O)CSc2nc3[nH]ncc3c(=O)[nH]2)cc1 | -35 | 29.1 µM [falling, single point] | 
CN(Cc1ccccc1)C(=O)CSc1nc2ccccc2c(=O)n1Cc1ccco1 | -15.1 | 0.146 µM [rising, full curve, poor fit] | 
Nc1c(Cl)cc(-c2[nH]c3cc(C(=O)NCCO)ccc3c(=O)c2O)cc1Cl | 24.6 |  | 7.31 µM [rising, partial curve, poor fit]
O=[N+]([O-])c1cccc(/C=N/n2c(C3CCCCC3)n[nH]c2=S)c1 | -51.8 | 23.1 µM [falling, single point] | 23.1 µM [falling, partial curve]
CC(=O)NN1C(=O)/C(=C/c2ccc(Br)o2)SC1=S | 357 | 20.6 µM [falling, single point] | 18.4 µM [rising, partial curve]
CN(C)c1cccc(C(=O)NCCCSc2ccccc2)c1 | 15.1 | 0.112 µM [rising, full curve, poor fit] | 
CCN(CC(=O)Nc1ccccc1C(F)(F)F)C(=O)c1cc(-c2ccccc2)nn1-c1ccccc1 | 84.5 |  | 20.6 µM [rising, single point]
Cn1c(CCCOc2ccc(Cl)cc2Cl)nnc1SCC(=O)Nc1cccc(F)c1 | -26.9 | 16.4 µM [falling, partial curve] | 
COCC(=O)Nc1ccc([N+](=O)[O-])cc1C |  | 29.1 µM [rising, single point] | 
CC1=Nn2c(nc3sc4c(c3c2=O)CCCC4)SC1 | -17.3 |  | 
COc1ccc(-c2nnc(SCC(=O)c3ccc(O)cc3O)o2)cc1 | -2.5 |  | 
CC(C)(C)C(=O)Nc1ccc(S(=O)(=O)N2CCCC2)cc1 | -8.14 | 29.1 µM [falling, single point] | 
COCCOC(=O)C1=C(C)NC(=S)NC1/C=C/c1ccccc1 (configuration not stated) | 76.8 | 29.1 µM [rising, single point] | 29.1 µM [rising, single point]
O=C1c2ccccc2C(=O)N1CCn1c(=O)oc2ccccc21 | 76.5 | 0.116 µM [rising, full curve, poor fit] | 0.259 µM [rising, full curve]
O=C(NCCc1ccccc1)c1nc2ncccn2n1 |  | 6.51 µM [rising, single point] | 6.51 µM [falling, single point]

An excerpt from above in order of SMILES length, smallest number first:
SMILES | cell number change [%] | AC50 [1] | AC50 [2]
CN(C)c1cccc(C(=O)NCCCSc2ccccc2)c1 | 15.1 | 0.112 µM [rising, full curve, poor fit] | 
CSc1nc(-c2ccco2)nn1C(=O)c1ccc(Cl)cc1 | -9.86 | 29.1 µM [rising, single point] | 
CN(Cc1ccccc1)C(=O)CSc1nc2ccccc2c(=O)n1Cc1ccco1 | -15.1 | 0.146 µM [rising, full curve, poor fit] | 
